Laboratory results reported in US8092810B2, “Use of polypeptides having antimicrobial activity” (Novozymes A/S, priority 2006, dated 2012).

Assays:
[1] = Odor evaluation of soiled laundry, wash in liquid detergent; details: panelists finding lowest odor with Lento
[2] = Odor evaluation of soiled laundry, wash in buffer; details: panelists finding lowest odor with Lento

B1: Lento: Bacillus licheniformis polypeptide having amino acids 1-85 of SEQ ID NO: 2, purified from ATCC 14580 fermentation broth (protein)
chain: MKNHLYEKKKRKPLTRTIKATLAVLTMSIALVGGATVPSFAWVNPGYHYQYPSEGGTWRYGFVNAGLRSEYNHPTKVHGSTVQKL
modifications: Bacillus licheniformis ATCC 14580
In the case of B1, the “Preference (with Lento:without), share with Lento” value (from here on “Preference (with Lento:without)”) ([1]; Shirt 1) is reported as 50%:50%, the “Preference (with Lento:without)” value ([1]; Shirt 2) is reported as 29%:71% and the “Preference (with Lento:without)” value ([1]; Sock) is reported as 71%:29%. For the same molecule, the “Preference (with Lento:without)” value ([1]; T-shirt 1) was 71%:29%, the “Preference (with Lento:without)” value ([1]; T-shirt 2) was 57%:43% and the “Preference (with Lento:without)” value ([1]; Tea towel 1) was 29%:71%. For the same molecule, the “Preference (with Lento:without)” value ([1]; Tea towel 2) was 57%:43%, the “Preference (with Lento:without)” value ([1]; Total) was 52%:48% and the “Preference (with Lento:without)” value ([2]; Shirt 1) was 36%:64%. For the same molecule, the “Preference (with Lento:without)” value ([2]; Shirt 2) was 43%:57%, the “Preference (with Lento:without)” value ([2]; Sock) was 86%:14% and the “Preference (with Lento:without)” value ([2]; T-shirt 1) was 100%:0%. For the same molecule, the “Preference (with Lento:without)” value ([2]; T-shirt 2) was 71%:29%, the “Preference (with Lento:without)” value ([2]; Tea towel 1) was 64%:36% and the “Preference (with Lento:without)” value ([2]; Tea towel 2) was 64%:36%. The “Preference (with Lento:without)” value ([2]; Total) was 66%:34%.
